# ± gives the standard deviation of the averaged measurements. Repeats in this data set agree poorly, so a single value says little.
# Protein sequences, listed by entry. Tags and fused reporters are not part of them. Lines headed by an entry give the natural chain unless they say otherwise; changes in a name come on top.
# UniProt Q9NYF8, whole entry, looked up: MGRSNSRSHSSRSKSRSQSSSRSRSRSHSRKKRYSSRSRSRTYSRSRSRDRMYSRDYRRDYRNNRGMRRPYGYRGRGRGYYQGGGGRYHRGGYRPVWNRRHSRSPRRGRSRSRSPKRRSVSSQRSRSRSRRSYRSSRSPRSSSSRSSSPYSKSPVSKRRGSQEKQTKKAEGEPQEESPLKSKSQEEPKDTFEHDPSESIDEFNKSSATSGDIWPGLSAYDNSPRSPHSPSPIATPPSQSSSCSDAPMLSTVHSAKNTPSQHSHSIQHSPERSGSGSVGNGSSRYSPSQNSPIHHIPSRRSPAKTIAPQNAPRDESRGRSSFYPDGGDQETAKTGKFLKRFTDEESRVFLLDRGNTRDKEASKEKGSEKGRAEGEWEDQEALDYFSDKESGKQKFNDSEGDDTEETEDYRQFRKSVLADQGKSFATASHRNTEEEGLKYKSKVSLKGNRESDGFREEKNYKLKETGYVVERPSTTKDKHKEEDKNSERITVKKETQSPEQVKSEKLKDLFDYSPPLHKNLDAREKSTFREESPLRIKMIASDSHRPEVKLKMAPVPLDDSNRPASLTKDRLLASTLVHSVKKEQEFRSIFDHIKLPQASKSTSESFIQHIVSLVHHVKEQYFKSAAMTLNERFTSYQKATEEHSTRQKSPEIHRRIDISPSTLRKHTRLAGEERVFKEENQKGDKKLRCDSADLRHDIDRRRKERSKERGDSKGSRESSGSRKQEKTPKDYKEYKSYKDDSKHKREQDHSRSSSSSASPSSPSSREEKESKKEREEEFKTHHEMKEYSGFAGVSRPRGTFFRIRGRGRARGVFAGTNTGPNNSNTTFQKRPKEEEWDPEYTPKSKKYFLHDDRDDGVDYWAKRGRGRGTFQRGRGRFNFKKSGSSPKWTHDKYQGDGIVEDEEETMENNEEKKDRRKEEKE
# UniProt Q9NYV4, whole entry, looked up: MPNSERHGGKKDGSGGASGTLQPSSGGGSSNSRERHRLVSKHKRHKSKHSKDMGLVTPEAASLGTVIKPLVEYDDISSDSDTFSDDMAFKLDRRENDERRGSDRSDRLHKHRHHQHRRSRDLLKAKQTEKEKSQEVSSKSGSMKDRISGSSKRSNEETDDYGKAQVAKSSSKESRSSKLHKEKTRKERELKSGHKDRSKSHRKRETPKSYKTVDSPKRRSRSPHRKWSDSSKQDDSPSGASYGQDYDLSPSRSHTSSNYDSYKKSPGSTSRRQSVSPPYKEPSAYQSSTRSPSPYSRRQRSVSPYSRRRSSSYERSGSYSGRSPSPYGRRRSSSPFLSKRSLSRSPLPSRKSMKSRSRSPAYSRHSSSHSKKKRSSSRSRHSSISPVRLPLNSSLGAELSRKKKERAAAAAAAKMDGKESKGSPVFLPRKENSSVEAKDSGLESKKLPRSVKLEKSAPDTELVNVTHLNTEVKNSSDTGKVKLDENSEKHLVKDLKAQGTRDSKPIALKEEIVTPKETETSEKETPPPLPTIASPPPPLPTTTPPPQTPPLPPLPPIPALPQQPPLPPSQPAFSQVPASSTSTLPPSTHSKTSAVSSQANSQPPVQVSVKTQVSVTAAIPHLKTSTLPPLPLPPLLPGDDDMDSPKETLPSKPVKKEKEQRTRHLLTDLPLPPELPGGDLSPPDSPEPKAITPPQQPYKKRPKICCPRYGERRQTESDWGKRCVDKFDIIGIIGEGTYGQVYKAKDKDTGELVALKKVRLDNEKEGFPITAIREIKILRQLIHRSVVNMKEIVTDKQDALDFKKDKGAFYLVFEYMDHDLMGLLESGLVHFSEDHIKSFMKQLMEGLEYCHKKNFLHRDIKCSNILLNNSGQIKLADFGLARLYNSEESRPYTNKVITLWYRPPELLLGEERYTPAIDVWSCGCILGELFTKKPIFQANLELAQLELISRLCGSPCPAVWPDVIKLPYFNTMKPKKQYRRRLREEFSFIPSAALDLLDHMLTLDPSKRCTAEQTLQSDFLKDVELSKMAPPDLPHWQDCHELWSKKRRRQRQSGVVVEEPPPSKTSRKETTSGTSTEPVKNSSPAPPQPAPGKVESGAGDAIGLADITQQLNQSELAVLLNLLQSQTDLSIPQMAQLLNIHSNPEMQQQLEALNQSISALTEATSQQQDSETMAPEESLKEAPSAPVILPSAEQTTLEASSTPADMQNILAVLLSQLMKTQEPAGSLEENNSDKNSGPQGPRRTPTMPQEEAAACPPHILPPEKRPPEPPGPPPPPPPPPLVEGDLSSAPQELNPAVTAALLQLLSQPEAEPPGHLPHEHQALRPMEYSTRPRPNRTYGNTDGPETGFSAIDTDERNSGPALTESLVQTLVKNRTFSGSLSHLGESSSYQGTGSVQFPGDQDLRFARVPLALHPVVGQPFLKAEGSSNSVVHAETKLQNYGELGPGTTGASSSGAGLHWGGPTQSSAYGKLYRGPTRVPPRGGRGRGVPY
# UniProt Q9P287, whole entry, looked up: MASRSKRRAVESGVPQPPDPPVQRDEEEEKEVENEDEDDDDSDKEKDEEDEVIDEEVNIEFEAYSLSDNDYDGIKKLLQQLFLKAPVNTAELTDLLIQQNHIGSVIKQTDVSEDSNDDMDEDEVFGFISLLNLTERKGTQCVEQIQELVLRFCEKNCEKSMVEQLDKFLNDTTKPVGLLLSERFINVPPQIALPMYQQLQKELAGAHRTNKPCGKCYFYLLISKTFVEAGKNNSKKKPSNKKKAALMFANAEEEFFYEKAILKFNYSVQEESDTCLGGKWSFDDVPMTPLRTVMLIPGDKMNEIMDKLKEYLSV
# UniProt Q9ULJ3: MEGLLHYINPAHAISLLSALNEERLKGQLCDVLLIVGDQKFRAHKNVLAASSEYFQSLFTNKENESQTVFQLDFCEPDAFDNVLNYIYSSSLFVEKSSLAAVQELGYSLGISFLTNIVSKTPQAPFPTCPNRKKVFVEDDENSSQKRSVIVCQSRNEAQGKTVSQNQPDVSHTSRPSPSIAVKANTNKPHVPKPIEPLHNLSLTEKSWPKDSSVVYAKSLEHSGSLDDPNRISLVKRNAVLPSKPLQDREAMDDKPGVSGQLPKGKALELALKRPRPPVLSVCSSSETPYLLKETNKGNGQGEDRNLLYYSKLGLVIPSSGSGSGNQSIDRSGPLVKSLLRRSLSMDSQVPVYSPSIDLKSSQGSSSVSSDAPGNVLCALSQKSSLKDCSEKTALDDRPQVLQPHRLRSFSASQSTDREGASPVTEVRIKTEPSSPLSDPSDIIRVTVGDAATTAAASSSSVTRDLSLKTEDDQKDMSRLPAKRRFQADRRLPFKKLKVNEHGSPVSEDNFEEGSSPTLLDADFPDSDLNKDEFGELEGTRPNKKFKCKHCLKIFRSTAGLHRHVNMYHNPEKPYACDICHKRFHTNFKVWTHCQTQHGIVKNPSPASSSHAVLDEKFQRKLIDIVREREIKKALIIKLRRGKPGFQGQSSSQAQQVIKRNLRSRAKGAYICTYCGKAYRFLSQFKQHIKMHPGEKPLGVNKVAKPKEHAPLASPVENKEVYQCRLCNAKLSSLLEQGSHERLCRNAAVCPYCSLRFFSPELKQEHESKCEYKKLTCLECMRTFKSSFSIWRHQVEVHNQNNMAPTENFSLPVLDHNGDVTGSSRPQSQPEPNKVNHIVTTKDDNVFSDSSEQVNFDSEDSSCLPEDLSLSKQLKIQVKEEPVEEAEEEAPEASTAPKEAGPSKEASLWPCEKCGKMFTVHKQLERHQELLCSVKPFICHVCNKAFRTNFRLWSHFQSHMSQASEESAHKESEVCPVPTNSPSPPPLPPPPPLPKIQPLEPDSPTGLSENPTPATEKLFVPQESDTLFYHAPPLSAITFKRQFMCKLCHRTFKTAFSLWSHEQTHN
# UniProt Q9UPN7: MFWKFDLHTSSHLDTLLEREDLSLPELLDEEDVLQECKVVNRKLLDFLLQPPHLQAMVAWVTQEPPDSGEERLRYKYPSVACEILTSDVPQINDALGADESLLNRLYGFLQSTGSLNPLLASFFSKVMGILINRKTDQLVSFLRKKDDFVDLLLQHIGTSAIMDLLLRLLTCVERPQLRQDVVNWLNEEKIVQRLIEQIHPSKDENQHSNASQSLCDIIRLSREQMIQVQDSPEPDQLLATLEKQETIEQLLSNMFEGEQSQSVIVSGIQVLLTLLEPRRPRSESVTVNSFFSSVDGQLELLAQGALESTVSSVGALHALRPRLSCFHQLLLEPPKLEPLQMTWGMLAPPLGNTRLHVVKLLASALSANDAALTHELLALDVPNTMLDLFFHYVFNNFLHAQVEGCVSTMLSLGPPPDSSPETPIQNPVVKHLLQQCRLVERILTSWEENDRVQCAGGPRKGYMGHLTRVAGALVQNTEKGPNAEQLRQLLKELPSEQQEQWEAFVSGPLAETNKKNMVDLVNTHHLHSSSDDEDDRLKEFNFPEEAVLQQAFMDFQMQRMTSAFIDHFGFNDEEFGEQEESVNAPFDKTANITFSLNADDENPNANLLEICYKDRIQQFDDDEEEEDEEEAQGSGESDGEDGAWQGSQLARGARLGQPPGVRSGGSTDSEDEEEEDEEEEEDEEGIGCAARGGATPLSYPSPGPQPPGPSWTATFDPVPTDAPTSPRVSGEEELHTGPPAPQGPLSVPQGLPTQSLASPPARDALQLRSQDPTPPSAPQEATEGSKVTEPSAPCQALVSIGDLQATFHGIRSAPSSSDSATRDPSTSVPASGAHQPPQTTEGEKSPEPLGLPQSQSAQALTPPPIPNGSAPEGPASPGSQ
# UniProt Q9UPQ9, whole entry, looked up: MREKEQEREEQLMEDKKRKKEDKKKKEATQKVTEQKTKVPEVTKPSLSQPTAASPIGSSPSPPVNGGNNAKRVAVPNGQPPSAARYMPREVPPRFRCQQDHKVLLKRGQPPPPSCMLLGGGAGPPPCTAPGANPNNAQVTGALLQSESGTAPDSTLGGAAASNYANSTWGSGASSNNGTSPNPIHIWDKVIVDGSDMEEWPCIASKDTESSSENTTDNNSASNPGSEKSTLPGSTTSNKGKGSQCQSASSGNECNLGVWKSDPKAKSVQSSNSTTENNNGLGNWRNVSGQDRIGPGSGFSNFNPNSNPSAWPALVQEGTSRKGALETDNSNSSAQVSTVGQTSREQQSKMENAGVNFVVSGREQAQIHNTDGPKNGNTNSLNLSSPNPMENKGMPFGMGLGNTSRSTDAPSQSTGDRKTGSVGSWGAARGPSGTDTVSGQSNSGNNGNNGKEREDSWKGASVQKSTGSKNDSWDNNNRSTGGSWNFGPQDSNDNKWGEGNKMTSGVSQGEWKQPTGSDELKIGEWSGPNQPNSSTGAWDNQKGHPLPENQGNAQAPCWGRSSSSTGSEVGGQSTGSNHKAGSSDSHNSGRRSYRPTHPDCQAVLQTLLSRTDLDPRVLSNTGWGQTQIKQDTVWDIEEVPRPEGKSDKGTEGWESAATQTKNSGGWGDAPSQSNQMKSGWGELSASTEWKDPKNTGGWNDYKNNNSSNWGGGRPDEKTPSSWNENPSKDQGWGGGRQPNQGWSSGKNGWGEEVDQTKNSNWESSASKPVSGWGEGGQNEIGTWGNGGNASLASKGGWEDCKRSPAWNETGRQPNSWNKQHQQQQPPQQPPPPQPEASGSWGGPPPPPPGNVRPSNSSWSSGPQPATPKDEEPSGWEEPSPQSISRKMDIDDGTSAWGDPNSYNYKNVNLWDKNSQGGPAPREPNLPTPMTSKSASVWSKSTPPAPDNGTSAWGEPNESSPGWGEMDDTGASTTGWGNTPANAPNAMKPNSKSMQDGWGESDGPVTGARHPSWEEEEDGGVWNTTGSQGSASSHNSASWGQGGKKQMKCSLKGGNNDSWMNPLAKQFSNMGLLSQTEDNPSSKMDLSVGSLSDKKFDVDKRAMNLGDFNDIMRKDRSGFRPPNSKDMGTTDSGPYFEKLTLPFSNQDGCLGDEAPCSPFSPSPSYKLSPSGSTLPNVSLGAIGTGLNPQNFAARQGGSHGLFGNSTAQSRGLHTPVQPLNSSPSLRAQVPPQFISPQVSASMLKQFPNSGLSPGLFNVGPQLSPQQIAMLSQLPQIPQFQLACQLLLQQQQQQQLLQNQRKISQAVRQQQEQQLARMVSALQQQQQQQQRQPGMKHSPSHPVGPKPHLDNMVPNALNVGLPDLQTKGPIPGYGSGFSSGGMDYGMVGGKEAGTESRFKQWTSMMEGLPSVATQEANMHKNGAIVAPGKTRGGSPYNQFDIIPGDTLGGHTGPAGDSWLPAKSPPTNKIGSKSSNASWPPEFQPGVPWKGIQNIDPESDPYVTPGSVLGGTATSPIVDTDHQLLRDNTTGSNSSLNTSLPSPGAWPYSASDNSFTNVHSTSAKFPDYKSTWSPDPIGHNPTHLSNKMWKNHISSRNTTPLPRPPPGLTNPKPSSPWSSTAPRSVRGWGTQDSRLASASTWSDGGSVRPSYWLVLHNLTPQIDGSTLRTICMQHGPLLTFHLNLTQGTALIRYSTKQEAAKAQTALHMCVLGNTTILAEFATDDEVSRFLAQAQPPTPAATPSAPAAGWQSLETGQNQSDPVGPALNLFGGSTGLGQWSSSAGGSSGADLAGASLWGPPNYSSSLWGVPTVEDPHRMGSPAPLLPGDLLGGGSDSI
# Compound: CC[C@@H](C)Nc1cc(C(=O)N[C@H]2C[C@H]3CC[C@@H](C2)N3c2ccc(C(=O)C3CC3)cn2)c(C)cc1C(N)=O [XL888]
# Experiment: phosphopeptide melting temperature shift (XL888 minus DMSO); higher = stabilised by drug treatment
# Conditions: 100 µM; treatment time 2 h; layout: intact cells; SK-Mel 28
# Experimental: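 Phospho-TPP in intact SK-Mel 28 cells treated with 100 uM XL888 or DMSO for 2 h, heated at 10 temperatures (37-67 C) for 3 min, soluble fraction TMT10plex-labelled and TiO2 phospho-enriched. Melting curves were fitted per phosphopeptide; the value is the melting point difference (drug minus vehicle) in each of two biological replicates.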
target,measurement,value
UniProt Q9NWS9_phosphosite_137 (phosphosite position: 137),phosphopeptide melting temperature shift,2.65 °C
UniProt Q9NYB9-2_phosphosite_301 (phosphosite position: 301),phosphopeptide melting temperature shift,2.14 °C
UniProt Q9NYF8-3_phosphosite_220 (phosphosite position: 220),phosphopeptide melting temperature shift,0.345 ± 1.5 °C
UniProt Q9NYF8-3_phosphosite_283 (phosphosite position: 283),phosphopeptide melting temperature shift,3.54 °C
UniProt Q9NYF8-3_phosphosite_288 (phosphosite position: 288),phosphopeptide melting temperature shift,1.4 °C
UniProt Q9NYV4-2_phosphosite_385 (phosphosite position: 385),phosphopeptide melting temperature shift,1.12 ± 1.5 °C
UniProt Q9NYV4-2_phosphosite_644 (phosphosite position: 644),phosphopeptide melting temperature shift,-0.194 ± 0.62 °C
UniProt Q9NYV4-2_phosphosite_681 (phosphosite position: 681),phosphopeptide melting temperature shift,-0.222 ± 0.32 °C
UniProt Q9NZB2-4_phosphosite_383 (phosphosite position: 383),phosphopeptide melting temperature shift,-2.69 ± 2.1 °C
UniProt Q9NZH5-2_phosphosite_165 (phosphosite position: 165),phosphopeptide melting temperature shift,4.18 °C
UniProt Q9NZM3-4_phosphosite_889 (phosphosite position: 889),phosphopeptide melting temperature shift,1.99 ± 0.62 °C
UniProt Q9P0K7-4_phosphosite_638 (phosphosite position: 638),phosphopeptide melting temperature shift,-0.402 ± 0.32 °C
UniProt Q9P0V3-2_phosphosite_296 (phosphosite position: 296),phosphopeptide melting temperature shift,-0.414 ± 2.5 °C
UniProt Q9P1Y6-2_phosphosite_1229 (phosphosite position: 1229),phosphopeptide melting temperature shift,3.61 °C
UniProt Q9P2D0-2_phosphosite_1045 (phosphosite position: 1045),phosphopeptide melting temperature shift,3.8 °C
UniProt Q9P2K5-4_phosphosite_17 (phosphosite position: 17),phosphopeptide melting temperature shift,7.24 °C
UniProt Q9P2Q2_phosphosite_800 (phosphosite position: 800),phosphopeptide melting temperature shift,0.793 °C
UniProt Q9P2R6-2_phosphosite_712 (phosphosite position: 712),phosphopeptide melting temperature shift,3.08 °C
UniProt Q9P287-4_phosphosite_42 (phosphosite position: 42),phosphopeptide melting temperature shift,0.272 ± 0.46 °C
UniProt Q9UBF8-2_phosphosite_496 (phosphosite position: 496),phosphopeptide melting temperature shift,0.871 °C
UniProt Q9UBL3-2_phosphosite_496 (phosphosite position: 496),phosphopeptide melting temperature shift,0.985 ± 1.4 °C
UniProt Q9UDT6-2_phosphosite_888 (phosphosite position: 888),phosphopeptide melting temperature shift,0.829 °C
UniProt Q9UDY2-3_phosphosite_221 (phosphosite position: 221),phosphopeptide melting temperature shift,-0.00426 °C
UniProt Q9UER7-3_phosphosite_420 (phosphosite position: 420),phosphopeptide melting temperature shift,1.29 °C
UniProt Q9UET6-2_phosphosite_269 (phosphosite position: 269),phosphopeptide melting temperature shift,0.348 ± 0.94 °C
UniProt Q9UEW8-2_phosphosite_366 (phosphosite position: 366),phosphopeptide melting temperature shift,1.34 °C
UniProt Q9UEY8-2_phosphosite_641 (phosphosite position: 641),phosphopeptide melting temperature shift,-1.47 °C
UniProt Q9UEY8-2_phosphosite_645 (phosphosite position: 645),phosphopeptide melting temperature shift,2.42 °C
UniProt Q9UEY8-2_phosphosite_649 (phosphosite position: 649),phosphopeptide melting temperature shift,1.63 ± 1.9 °C
UniProt Q9UGI8-2_phosphosite_159 (phosphosite position: 159),phosphopeptide melting temperature shift,1.3 ± 0.015 °C
UniProt Q9UGR2-2_phosphosite_217 (phosphosite position: 217),phosphopeptide melting temperature shift,-1.94 ± 3.2 °C
UniProt Q9UGR2-2_phosphosite_223 (phosphosite position: 223),phosphopeptide melting temperature shift,-0.737 °C
UniProt Q9UGR2-2_phosphosite_224 (phosphosite position: 224),phosphopeptide melting temperature shift,-2.42 ± 1.7 °C
UniProt Q9UHR5-2_phosphosite_18 (phosphosite position: 18),phosphopeptide melting temperature shift,5.4 ± 0.15 °C
UniProt Q9UHR5-2_phosphosite_22 (phosphosite position: 22),phosphopeptide melting temperature shift,5.4 ± 0.15 °C
UniProt Q9UK76-3_phosphosite_85 (phosphosite position: 85),phosphopeptide melting temperature shift,1.97 °C
UniProt Q9UKM9-2_phosphosite_272 (phosphosite position: 272),phosphopeptide melting temperature shift,1.52 ± 1.3 °C
UniProt Q9ULJ3_phosphosite_345 (phosphosite position: 345),phosphopeptide melting temperature shift,1.53 ± 0.58 °C
UniProt Q9ULJ3_phosphosite_435 (phosphosite position: 435),phosphopeptide melting temperature shift,1.32 ± 1.1 °C
UniProt Q9ULJ3_phosphosite_504 (phosphosite position: 504),phosphopeptide melting temperature shift,-2.01 °C
UniProt Q9ULJ3_phosphosite_714 (phosphosite position: 714),phosphopeptide melting temperature shift,-1.25 °C
UniProt Q9ULL8-2_phosphosite_183 (phosphosite position: 183),phosphopeptide melting temperature shift,0.107 °C
UniProt Q9UMZ2-4_phosphosite_774 (phosphosite position: 774),phosphopeptide melting temperature shift,0.156 °C
UniProt Q9UMZ2-4_phosphosite_776 (phosphosite position: 776),phosphopeptide melting temperature shift,0.878 °C
UniProt Q9UMZ2-4_phosphosite_777 (phosphosite position: 777),phosphopeptide melting temperature shift,0.156 °C
UniProt Q9UNS1-2_phosphosite_1120 (phosphosite position: 1120),phosphopeptide melting temperature shift,3.44 °C
UniProt Q9UPN3-4_phosphosite_1376 (phosphosite position: 1376),phosphopeptide melting temperature shift,-0.557 °C
UniProt Q9UPN3-4_phosphosite_1860 (phosphosite position: 1860),phosphopeptide melting temperature shift,1.61 °C
UniProt Q9UPN3-4_phosphosite_2433 (phosphosite position: 2433),phosphopeptide melting temperature shift,0.783 ± 0.27 °C
UniProt Q9UPN3-4_phosphosite_5242 (phosphosite position: 5242),phosphopeptide melting temperature shift,0.954 °C
UniProt Q9UPN4-3_phosphosite_78 (phosphosite position: 78),phosphopeptide melting temperature shift,-1.25 °C
UniProt Q9UPN4-3_phosphosite_381 (phosphosite position: 381),phosphopeptide melting temperature shift,5.01 °C
UniProt Q9UPN7_phosphosite_530 (phosphosite position: 530),phosphopeptide melting temperature shift,2.22 ± 1.2 °C
UniProt Q9UPN7_phosphosite_531 (phosphosite position: 531),phosphopeptide melting temperature shift,0.378 °C
UniProt Q9UPN7_phosphosite_759 (phosphosite position: 759),phosphopeptide melting temperature shift,-0.0189 ± 0.46 °C
UniProt Q9UPN9-2_phosphosite_1085 (phosphosite position: 1085),phosphopeptide melting temperature shift,-1.03 ± 1.2 °C
UniProt Q9UPN9-2_phosphosite_1088 (phosphosite position: 1088),phosphopeptide melting temperature shift,-1.03 ± 1.2 °C
UniProt Q9UPP1-5_phosphosite_804 (phosphosite position: 804),phosphopeptide melting temperature shift,2.41 °C
UniProt Q9UPQ0-9_phosphosite_552 (phosphosite position: 552),phosphopeptide melting temperature shift,-1.38 °C
UniProt Q9UPQ9-1_phosphosite_567 (phosphosite position: 567),phosphopeptide melting temperature shift,-0.153 °C
UniProt Q9UPQ9-1_phosphosite_1322 (phosphosite position: 1322),phosphopeptide melting temperature shift,1.83 °C
UniProt Q9UPT5-4_phosphosite_250 (phosphosite position: 250),phosphopeptide melting temperature shift,2.76 °C
UniProt Q9UPZ3-2_phosphosite_347 (phosphosite position: 347),phosphopeptide melting temperature shift,-7.23 °C
UniProt Q9UQC2-2_phosphosite_367 (phosphosite position: 367),phosphopeptide melting temperature shift,-0.637 ± 0.73 °C
UniProt Q9Y2D5-5_phosphosite_210 (phosphosite position: 210),phosphopeptide melting temperature shift,-0.535 °C
UniProt Q9Y2D5-5_phosphosite_809 (phosphosite position: 809),phosphopeptide melting temperature shift,2.36 ± 0.043 °C
UniProt Q9Y2H0-3_phosphosite_434 (phosphosite position: 434),phosphopeptide melting temperature shift,-1.94 ± 0.93 °C
UniProt Q9Y2I7_phosphosite_22 (phosphosite position: 22),phosphopeptide melting temperature shift,-1.46 ± 2.1 °C
UniProt Q9Y2I7_phosphosite_307 (phosphosite position: 307),phosphopeptide melting temperature shift,0.877 ± 0.26 °C
UniProt Q9Y2J0-2_phosphosite_688 (phosphosite position: 688),phosphopeptide melting temperature shift,2.34 ± 3.5 °C
UniProt Q9Y2J0-2_phosphosite_689 (phosphosite position: 689),phosphopeptide melting temperature shift,5.2 ± 0.78 °C
UniProt Q9Y2K7-3_phosphosite_713 (phosphosite position: 713),phosphopeptide melting temperature shift,2.38 °C
UniProt Q9Y2L9-2_phosphosite_370 (phosphosite position: 370),phosphopeptide melting temperature shift,0.39 °C
UniProt Q9Y2U5_phosphosite_331 (phosphosite position: 331),phosphopeptide melting temperature shift,0.74 ± 0.89 °C
UniProt Q9Y3M2_phosphosite_20 (phosphosite position: 20),phosphopeptide melting temperature shift,1.27 °C
UniProt Q9Y3M8-5_phosphosite_125 (phosphosite position: 125),phosphopeptide melting temperature shift,0.569 ± 0.55 °C

# 3 entries from above, set out differently:
target	measurement	value
UniProt Q9UPQ9-1_phosphosite_567 (phosphosite position: 567)	phosphopeptide melting temperature shift	-0.153 °C
UniProt Q9UPQ9-1_phosphosite_1322 (phosphosite position: 1322)	phosphopeptide melting temperature shift	1.83 °C
UniProt Q9UPT5-4_phosphosite_250 (phosphosite position: 250)	phosphopeptide melting temperature shift	2.76 °C

# No new results follow: an excerpt of the list.
target,measurement,value
UniProt Q9UMZ2-4_phosphosite_774 (phosphosite position: 774),phosphopeptide melting temperature shift,0.156 °C
UniProt Q9UMZ2-4_phosphosite_776 (phosphosite position: 776),phosphopeptide melting temperature shift,0.878 °C
UniProt Q9UMZ2-4_phosphosite_777 (phosphosite position: 777),phosphopeptide melting temperature shift,0.156 °C
UniProt Q9UNS1-2_phosphosite_1120 (phosphosite position: 1120),phosphopeptide melting temperature shift,3.44 °C

# Reference: the supplement of paper PMC5836539
